From paper PMC9406782 come the findings set out here.

Protein sequences, listed by entry. Tags and fused reporters are not part of them. Residues count along the entry.
UniProt P19022, residues 160-906: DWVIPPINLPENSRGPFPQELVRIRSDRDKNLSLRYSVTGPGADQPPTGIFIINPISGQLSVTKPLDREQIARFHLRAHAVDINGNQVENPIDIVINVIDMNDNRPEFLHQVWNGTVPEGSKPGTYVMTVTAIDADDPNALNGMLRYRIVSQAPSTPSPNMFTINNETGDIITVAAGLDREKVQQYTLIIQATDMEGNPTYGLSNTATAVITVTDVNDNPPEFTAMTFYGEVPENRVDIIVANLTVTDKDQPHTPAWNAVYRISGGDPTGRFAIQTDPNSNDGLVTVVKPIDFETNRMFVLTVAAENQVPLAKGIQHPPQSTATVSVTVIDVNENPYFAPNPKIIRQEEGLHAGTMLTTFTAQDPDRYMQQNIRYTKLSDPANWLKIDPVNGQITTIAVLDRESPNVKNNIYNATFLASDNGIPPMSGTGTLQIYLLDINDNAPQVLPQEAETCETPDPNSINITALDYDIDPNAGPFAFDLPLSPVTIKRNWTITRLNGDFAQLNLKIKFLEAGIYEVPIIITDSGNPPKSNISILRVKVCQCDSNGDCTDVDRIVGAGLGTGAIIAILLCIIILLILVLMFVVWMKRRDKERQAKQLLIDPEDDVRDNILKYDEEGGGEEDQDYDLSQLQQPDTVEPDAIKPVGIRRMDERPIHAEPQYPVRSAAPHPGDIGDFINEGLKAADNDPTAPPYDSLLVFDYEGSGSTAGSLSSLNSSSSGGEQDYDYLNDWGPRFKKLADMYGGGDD

Results are given in words; binding and its absence hold for the method and conditions named. In cells and extracts the contact can be indirect. Binding can be weak; no strength is given.

Test [1] deals with N-cadherin (human (endogenous in PLC cells and in human HCC tissue)) (UniProt P19022). The test is described as follows: co-IP; whole-cell lysates of PLC cells; 1% Triton X-100, RIPA or Empigen immunoprecipitation buffers (150 mM NaCl, 5 mM EDTA or 0.5 mM CaCl2); antibodies against E- or N-cadherin on protein G/A magnetic beads, 4 °C overnight; SDS-PAGE and immunoblot; unrelated mouse myeloma IgG1 as control.

The target in test [2] is E-cadherin (human (endogenous in PLC cells and in human HCC tissue)). The test is described as above.

As for vinculin (from UniProt P18206-2), in test [1], the binding entry is “binds”.

B1: plakoglobin (protein, UniProt P14923 1-745)
chain: MEVMNLMEQPIKVTEWQQTYTYDSGIHSGANTCVPSVSSKGIMEEDEACGRQYTLKKTTTYTQGVPPSQGDLEYQMSTTARAKRVREAMCPGVSGEDSSLLLATQVEGQATNLQRLAEPSQLLKSAIVHLINYQDDAELATRALPELTKLLNDEDPVVVTKAAMIVNQLSKKEASRRALMGSPQLVAAVVRTMQNTSDLDTARCTTSILHNLSHHREGLLAIFKSGGIPALVRMLSSPVESVLFYAITTLHNLLLYQEGAKMAVRLADGLQKMVPLLNKNNPKFLAITTDCLQLLAYGNQESKLIILANGGPQALVQIMRNYSYEKLLWTTSRVLKVLSVCPSNKPAIVEAGGMQALGKHLTSNSPRLVQNCLWTLRNLSDVATKQEGLESVLKILVNQLSVDDVNVLTCATGTLSNLTCNNSKNKTLVTQNSGVEALIHAILRAGDKDDITEPAVCALRHLTSRHPEAEMAQNSVRLNYGIPAIVKLLNQPNQWPLVKATIGLIRNLALCPANHAPLQEAAVIPRLVQLLVKAHQDAQRHVAAGTQQPYTDGVRMEEIVEGCTGALHILARDPMNRMEIFRLNTIPLFVQLLYSSVENIQRVAAGVLCELAQDKEAADAIDAEGASAPLMELLHSRNEGTATYAAAVLFRISEDKNPDYRKRVSVELTNSLFKHDPAAWEAAQSMIPINEPYGDDMDATYRPMYSSDVPLDPLEMHMDMDGDYPIDTYSDGLRPPYPTADHMLA
Regarding B1, the binding result in test [2] is “binds”.
